No constants are given. Whether binding was seen depends on the method and setting. In cells and extracts the contact can be indirect. Here binding means that the protein was enriched with, or labelled near, the bait; the list need not be complete. Each block holds one binder with its values, some of them ahead of it.
Target: T1, angiotensin-I-converting enzyme (ACE) (UniProt P12822)
T1 sequence: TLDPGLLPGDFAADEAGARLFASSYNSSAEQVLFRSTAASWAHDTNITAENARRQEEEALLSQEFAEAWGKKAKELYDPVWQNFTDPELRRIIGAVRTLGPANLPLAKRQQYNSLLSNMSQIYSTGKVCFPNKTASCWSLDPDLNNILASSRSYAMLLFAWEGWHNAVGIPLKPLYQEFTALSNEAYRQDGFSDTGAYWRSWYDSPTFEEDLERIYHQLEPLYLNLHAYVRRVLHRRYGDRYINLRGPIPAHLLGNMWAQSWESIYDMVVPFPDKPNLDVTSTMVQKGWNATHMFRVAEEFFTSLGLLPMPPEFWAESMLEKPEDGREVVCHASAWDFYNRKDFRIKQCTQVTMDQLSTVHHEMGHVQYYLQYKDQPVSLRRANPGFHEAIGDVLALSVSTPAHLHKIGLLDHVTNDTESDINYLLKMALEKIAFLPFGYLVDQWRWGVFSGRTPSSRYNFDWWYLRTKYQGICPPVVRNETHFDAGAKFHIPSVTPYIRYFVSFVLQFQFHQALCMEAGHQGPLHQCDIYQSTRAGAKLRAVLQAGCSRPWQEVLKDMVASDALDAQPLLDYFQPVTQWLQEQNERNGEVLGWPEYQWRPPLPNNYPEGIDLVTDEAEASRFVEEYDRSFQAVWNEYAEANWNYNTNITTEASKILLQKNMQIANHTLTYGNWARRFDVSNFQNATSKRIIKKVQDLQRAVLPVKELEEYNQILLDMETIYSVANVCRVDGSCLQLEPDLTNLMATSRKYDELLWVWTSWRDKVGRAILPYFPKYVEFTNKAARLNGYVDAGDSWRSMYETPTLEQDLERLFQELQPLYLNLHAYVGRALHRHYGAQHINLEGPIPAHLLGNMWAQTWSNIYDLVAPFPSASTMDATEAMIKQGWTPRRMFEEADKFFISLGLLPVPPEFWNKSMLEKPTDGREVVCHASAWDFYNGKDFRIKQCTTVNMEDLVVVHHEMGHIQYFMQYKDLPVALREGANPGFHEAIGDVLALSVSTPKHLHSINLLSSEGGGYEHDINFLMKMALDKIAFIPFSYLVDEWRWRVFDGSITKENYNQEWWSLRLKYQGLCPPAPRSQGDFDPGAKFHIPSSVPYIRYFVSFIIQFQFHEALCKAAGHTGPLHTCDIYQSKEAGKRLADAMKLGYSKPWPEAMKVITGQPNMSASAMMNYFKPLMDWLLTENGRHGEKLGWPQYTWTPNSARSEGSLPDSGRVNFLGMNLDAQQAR
Assay: affinity purification with mass spectrometry; ACE immobilised on CNBr-activated Sepharose 4B; <3 kDa peptide fraction of the hydrolysate loaded in 50 mmol/L borate pH 7.4, washed, eluted with 0.1 M borate with 1 M NaCl pH 8.3; eluent separated by RP-HPLC, subfraction A2-2 identified by LC-MS/MS; only the target purified

- binding: binds
B8: … (peptide)
peptide: IGGGDDSFNTF

- binding: binds
B9: DIIHDPGR (peptide)
peptide: DIIHDPGR

- binding: binds
B10: DDQYHIF (peptide)
peptide: DDQYHIF

- binding: binds
B11: ADDFYYQ (peptide)
peptide: ADDFYYQ

- binding: binds
B13: … (peptide)
peptide: GPVGNPGIGGPQ

- binding: binds
B14: … (peptide)
peptide: GPNDERFGPR

- binding: binds
B18: … (peptide)
peptide: QDAPVPGSPL

- binding: binds
B19: … (peptide)
peptide: LPGDNVGFN

Second part, the binder before the results:

B1: … (peptide)
peptide: QGPPGGPGLGGQ
- binding: binds

B2: … (peptide)
peptide: AENDDPNFF
- binding: binds

B3: … (peptide)
peptide: DKDVPGSPF
- binding: binds

B4: SDDFFNR (peptide)
peptide: SDDFFNR
- binding: binds

B5: THDWWKER (peptide)
peptide: THDWWKER
- binding: binds

B6: … (peptide)
peptide: FSGEDDPMYQ
- binding: binds

B7: HDWWKER (peptide)
peptide: HDWWKER
- binding: binds

B12: FDDINLH (peptide)
peptide: FDDINLH
- binding: binds

B15: FQDDIDKM (peptide)
peptide: FQDDIDKM
- binding: binds

B16: … (peptide)
peptide: SGAPGAQGPIGF
- binding: binds

B17: … (peptide)
peptide: GQDDLFDDM
- binding: binds

B20: … (peptide)
peptide: GEDHIPGSPF
- binding: binds

Source: publication PMC10890666, “Targeted Affinity Purification and Mechanism of Action of Angiotensin-Converting Enzyme (ACE) Inhibitory Peptides from Sea Cucumber Gonads” (Marine Drugs, 2024)
